Assay results published in PMC2993708.
These are yes or no findings as the source states them, for the method shown. Binding seen in cells or lysates may run through a third protein. Some binding calls cover weakened binding; strength is not graded here. Tags and fused reporters may be left off the sequences shown.

Protein sequences, listed by entry. Tags and fused reporters are not part of them.
UniProt P11103: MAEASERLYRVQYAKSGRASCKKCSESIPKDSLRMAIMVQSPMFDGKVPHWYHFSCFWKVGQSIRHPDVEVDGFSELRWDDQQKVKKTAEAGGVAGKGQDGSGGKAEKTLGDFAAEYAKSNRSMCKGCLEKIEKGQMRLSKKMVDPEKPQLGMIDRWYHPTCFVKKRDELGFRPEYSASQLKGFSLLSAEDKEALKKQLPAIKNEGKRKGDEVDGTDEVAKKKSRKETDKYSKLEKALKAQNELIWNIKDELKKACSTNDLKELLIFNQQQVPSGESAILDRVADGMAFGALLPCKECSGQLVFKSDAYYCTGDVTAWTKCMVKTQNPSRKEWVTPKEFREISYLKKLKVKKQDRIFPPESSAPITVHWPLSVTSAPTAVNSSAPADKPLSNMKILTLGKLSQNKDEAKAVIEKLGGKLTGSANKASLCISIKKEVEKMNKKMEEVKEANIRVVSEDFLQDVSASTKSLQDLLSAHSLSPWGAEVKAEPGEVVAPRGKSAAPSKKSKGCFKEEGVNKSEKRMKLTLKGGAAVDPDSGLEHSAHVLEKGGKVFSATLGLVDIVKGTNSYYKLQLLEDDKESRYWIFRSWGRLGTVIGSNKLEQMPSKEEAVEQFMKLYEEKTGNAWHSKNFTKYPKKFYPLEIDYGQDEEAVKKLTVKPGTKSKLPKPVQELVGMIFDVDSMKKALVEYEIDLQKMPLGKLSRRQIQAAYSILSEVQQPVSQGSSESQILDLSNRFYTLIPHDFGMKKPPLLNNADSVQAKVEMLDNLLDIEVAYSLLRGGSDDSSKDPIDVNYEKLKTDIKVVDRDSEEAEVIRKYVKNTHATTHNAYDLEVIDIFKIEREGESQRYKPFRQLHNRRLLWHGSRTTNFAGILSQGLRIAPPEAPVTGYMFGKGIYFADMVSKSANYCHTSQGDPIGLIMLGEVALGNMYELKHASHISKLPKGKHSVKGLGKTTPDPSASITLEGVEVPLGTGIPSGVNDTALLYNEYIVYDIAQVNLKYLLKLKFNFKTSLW
UniProt Q61937: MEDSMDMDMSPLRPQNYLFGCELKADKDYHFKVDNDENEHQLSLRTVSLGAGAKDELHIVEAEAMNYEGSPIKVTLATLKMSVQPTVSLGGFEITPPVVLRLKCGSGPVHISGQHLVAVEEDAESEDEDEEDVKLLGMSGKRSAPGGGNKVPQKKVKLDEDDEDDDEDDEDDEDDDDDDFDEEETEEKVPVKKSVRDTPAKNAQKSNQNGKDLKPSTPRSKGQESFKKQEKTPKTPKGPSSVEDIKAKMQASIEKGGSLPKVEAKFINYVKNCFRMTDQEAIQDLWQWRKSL
UniProt O35134: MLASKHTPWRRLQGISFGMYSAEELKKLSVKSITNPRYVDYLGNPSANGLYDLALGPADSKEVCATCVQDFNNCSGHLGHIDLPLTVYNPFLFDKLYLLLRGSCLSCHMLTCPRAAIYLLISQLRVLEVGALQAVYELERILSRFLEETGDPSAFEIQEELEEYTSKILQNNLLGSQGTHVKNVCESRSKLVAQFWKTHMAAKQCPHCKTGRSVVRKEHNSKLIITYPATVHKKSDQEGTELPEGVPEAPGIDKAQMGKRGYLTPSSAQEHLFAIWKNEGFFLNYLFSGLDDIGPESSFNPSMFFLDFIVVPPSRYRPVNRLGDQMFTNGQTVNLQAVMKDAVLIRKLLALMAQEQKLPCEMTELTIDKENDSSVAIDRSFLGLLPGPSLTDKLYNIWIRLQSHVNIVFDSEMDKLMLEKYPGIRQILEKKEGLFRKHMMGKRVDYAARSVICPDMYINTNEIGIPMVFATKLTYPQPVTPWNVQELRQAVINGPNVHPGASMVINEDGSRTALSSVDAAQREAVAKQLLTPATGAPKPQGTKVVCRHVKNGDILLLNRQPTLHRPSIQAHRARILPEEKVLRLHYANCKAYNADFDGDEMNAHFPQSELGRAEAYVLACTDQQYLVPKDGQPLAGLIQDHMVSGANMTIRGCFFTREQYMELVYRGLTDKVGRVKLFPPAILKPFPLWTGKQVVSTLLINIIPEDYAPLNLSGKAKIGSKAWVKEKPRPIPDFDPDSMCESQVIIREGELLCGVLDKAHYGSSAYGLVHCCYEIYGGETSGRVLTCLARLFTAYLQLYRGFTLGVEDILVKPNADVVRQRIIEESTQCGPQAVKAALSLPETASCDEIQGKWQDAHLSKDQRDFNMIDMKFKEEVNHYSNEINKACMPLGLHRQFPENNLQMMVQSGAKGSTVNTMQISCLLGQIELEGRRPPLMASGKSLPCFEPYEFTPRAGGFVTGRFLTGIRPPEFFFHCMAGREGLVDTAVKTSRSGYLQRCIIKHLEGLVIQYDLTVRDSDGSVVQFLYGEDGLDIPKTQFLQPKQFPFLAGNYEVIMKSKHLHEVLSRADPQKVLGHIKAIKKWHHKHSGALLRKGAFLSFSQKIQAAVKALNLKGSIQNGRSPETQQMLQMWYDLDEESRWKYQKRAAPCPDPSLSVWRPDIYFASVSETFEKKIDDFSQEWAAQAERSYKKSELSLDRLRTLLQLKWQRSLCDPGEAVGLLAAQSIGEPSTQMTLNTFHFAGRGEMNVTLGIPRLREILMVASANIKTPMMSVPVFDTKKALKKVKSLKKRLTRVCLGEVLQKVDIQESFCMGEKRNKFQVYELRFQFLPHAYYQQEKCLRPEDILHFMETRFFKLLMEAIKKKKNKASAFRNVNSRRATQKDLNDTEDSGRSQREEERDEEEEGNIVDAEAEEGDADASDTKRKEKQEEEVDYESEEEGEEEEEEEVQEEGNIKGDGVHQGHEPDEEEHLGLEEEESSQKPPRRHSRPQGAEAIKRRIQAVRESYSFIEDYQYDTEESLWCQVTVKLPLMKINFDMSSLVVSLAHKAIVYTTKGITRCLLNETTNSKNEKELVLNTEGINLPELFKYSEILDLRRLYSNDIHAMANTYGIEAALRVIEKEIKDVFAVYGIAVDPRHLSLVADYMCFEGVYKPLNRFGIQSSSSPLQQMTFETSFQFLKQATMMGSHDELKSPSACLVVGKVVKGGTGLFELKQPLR

T1: biotin tagged CTCF (CTCF-bio) (mouse) (UniProt Q61164)
T1 sequence (chain, biotinylated lysine in the C-terminal tag (by BirA)): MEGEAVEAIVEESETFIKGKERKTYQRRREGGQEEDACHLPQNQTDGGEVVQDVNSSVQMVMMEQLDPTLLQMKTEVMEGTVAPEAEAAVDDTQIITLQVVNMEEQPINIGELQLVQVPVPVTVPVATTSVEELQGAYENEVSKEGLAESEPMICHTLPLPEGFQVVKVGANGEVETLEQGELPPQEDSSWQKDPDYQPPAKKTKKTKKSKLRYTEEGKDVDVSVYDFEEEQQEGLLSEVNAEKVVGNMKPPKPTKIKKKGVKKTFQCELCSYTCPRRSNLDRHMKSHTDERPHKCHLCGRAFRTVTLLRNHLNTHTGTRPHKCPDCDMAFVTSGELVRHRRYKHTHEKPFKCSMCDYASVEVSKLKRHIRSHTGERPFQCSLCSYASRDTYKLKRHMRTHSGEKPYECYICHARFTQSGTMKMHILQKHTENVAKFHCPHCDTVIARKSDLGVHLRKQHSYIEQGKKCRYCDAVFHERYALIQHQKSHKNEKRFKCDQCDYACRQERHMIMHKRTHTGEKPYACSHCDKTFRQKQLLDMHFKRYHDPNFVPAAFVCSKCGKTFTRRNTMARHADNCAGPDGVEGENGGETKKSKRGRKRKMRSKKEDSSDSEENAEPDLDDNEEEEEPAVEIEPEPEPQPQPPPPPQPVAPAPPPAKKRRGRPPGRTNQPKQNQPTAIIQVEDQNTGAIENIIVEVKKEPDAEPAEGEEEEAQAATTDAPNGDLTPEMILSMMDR

T2: untagged CTCF (CCCTC binding factor) (mouse (endogenous in ES cells)) (UniProt Q61164)
T2 sequence: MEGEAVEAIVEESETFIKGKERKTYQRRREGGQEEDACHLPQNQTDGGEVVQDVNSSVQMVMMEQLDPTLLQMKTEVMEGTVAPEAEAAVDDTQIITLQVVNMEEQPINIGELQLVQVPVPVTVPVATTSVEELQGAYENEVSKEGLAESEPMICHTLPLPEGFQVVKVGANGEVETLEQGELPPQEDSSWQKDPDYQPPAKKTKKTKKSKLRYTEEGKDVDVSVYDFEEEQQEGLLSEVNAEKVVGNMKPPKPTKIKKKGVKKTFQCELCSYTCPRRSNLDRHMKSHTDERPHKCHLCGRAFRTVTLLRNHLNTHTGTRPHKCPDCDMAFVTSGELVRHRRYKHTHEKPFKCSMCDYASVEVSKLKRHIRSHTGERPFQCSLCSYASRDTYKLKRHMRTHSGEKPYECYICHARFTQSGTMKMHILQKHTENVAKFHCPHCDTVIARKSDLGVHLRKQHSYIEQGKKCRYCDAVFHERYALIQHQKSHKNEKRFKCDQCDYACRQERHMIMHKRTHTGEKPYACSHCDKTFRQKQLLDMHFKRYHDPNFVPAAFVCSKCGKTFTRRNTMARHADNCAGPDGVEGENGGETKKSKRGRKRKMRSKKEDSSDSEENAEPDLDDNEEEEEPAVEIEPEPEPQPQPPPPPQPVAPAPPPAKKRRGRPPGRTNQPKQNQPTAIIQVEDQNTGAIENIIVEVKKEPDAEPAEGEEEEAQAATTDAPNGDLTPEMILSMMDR

T3: Flag-tagged UBF (mouse) (UniProt P25976)
T3 sequence: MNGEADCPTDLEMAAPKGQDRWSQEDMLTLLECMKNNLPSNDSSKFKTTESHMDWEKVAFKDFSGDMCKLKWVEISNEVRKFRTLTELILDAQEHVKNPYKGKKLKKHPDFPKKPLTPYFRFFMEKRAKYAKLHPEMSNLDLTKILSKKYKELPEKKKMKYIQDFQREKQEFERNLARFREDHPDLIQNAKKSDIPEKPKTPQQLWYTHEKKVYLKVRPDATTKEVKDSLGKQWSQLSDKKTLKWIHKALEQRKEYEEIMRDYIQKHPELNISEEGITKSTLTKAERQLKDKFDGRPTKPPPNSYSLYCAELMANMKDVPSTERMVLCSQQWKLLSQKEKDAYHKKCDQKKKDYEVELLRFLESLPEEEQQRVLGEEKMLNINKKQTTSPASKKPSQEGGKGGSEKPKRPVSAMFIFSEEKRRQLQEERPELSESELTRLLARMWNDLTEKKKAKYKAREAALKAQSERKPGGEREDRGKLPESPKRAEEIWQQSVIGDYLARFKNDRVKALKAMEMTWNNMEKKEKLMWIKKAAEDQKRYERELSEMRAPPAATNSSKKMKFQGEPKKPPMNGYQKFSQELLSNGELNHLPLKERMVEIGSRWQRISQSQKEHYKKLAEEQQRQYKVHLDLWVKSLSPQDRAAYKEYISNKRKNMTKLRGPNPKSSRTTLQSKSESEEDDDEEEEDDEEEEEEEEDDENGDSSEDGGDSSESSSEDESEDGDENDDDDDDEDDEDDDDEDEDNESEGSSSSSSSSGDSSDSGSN


Experiments:
[1] = target: T1, biotin tagged CTCF (CTCF-bio) (mouse); experiment: pull-down; CTCF-bio held on streptavidin-coupled magnetic beads from ES cell nuclear extracts, western blot; IP buffer (100 mmol/l NaCl, 0.3% NP40, 20 mmol/l Hepes pH8, 0.2 mmol/l EDTA, 10 mmol/l MgCl2); extracts with or without benzonase for 2 hours at 4°C
[2] = target: T2, untagged CTCF (CCCTC binding factor) (mouse (endogenous in ES cells)); experiment: co-IP; anti-CTCF antiserum on extracts of ES cells expressing both CTCF and CTCF-bio; protein-A sepharose, 4°C, wash buffer 100 mmol/l NaCl, 20 mmol/l Tris pH7.5, 0.3% NP40
[3] = target: T1, biotin tagged CTCF (CTCF-bio) (mouse); experiment: pull-down; streptavidin pull-down from lung nuclear extracts of mice expressing CTCF-bio, western blot
[4] = target: T1, biotin tagged CTCF (CTCF-bio) (mouse); experiment: pull-down; not shown; CTCF-bio and UBF in thymus
Flag-tagged UBF (mouse) = target: T3, Flag-tagged UBF (mouse); experiment: co-IP; anti-Flag M2 agarose, 3h at 4°C, extracts of 293T cells transfected with Flag-UBF alone or with CTCFL; western blot

| Molecule | binding [1] | binding (Flag-tagged UBF (mouse)) | other results |
| --- | --- | --- | --- |
| poly(ADP-ribose) polymerase (Parp)1 (from UniProt P11103 1-1013) | binds |  |  |
| nucleophosmin (from UniProt Q61937 1-292) | binds |  |  |
| large subunit of RNA polymerase I (RPA194) (from UniProt O35134 1-1717) | binds |  |  |
| upstream binding factor (UBF) (protein, UniProt P25976-2 1-728) MNGEADCPTDLEMAAPKGQDRWSQEDMLTLLECMKNNLPSNDSSKFKTTESHMDWEKVAFKDFSGDMCKLKWVEISNEVRKFRTLTELILDAQEHVKNPYKGKKLKKHPDFPKKPLTPYFRFFMEKRAKYAKLHPEMSNLDLTKILSKKYKELPEKKKMKYIQDFQREKQEFERNLARFREDHPDLIQNAKKSDIPEKPKTPQQLWYTHEKKVYLKVRPDEIMRDYIQKHPELNISEEGITKSTLTKAERQLKDKFDGRPTKPPPNSYSLYCAELMANMKDVPSTERMVLCSQQWKLLSQKEKDAYHKKCDQKKKDYEVELLRFLESLPEEEQQRVLGEEKMLNINKKQTTSPASKKPSQEGGKGGSEKPKRPVSAMFIFSEEKRRQLQEERPELSESELTRLLARMWNDLTEKKKAKYKAREAALKAQSERKPGGEREDRGKLPESPKRAEEIWQQSVIGDYLARFKNDRVKALKAMEMTWNNMEKKEKLMWIKKAAEDQKRYERELSEMRAPPAATNSSKKMKFQGEPKKPPMNGYQKFSQELLSNGELNHLPLKERMVEIGSRWQRISQSQKEHYKKLAEEQQRQYKVHLDLWVKSLSPQDRAAYKEYISNKRKNMTKLRGPNPKSSRTTLQSKSESEEDDDEEEEDDEEEEEEEEDDENGDSSEDGGDSSESSSEDESEDGDENDDDDDDEDDEDDDDEDEDNESEGSSSSSSSSGDSSDSGSN | binds |  | binding [2]: binds; binding [3]: binds; binding [4]: binds |
| endogenous CTCF of 293T cells (protein, UniProt P49711 1-727) MEGDAVEAIVEESETFIKGKERKTYQRRREGGQEEDACHLPQNQTDGGEVVQDVNSSVQMVMMEQLDPTLLQMKTEVMEGTVAPEAEAAVDDTQIITLQVVNMEEQPINIGELQLVQVPVPVTVPVATTSVEELQGAYENEVSKEGLAESEPMICHTLPLPEGFQVVKVGANGEVETLEQGELPPQEDPSWQKDPDYQPPAKKTKKTKKSKLRYTEEGKDVDVSVYDFEEEQQEGLLSEVNAEKVVGNMKPPKPTKIKKKGVKKTFQCELCSYTCPRRSNLDRHMKSHTDERPHKCHLCGRAFRTVTLLRNHLNTHTGTRPHKCPDCDMAFVTSGELVRHRRYKHTHEKPFKCSMCDYASVEVSKLKRHIRSHTGERPFQCSLCSYASRDTYKLKRHMRTHSGEKPYECYICHARFTQSGTMKMHILQKHTENVAKFHCPHCDTVIARKSDLGVHLRKQHSYIEQGKKCRYCDAVFHERYALIQHQKSHKNEKRFKCDQCDYACRQERHMIMHKRTHTGEKPYACSHCDKTFRQKQLLDMHFKRYHDPNFVPAAFVCSKCGKTFTRRNTMARHADNCAGPDGVEGENGGETKKSKRGRKRKMRSKKEDSSDSENAEPDLDDNEDEEEPAVEIEPEPEPQPVTPAPPPAKKRRGRPPGRTNQPKQNQPTAIIQVEDQNTGAIENIIVEVKKEPDAEPAEGEEEEAQPAATDAPNGDLTPEMILSMMDR |  | binds |  |
| CTCFL (overexpressed, not tagged) (protein, UniProt A2APF3 1-636) MAAAEVPVPSGYFTQIKEQKLKPGDLEEEKEEDGVQRVEAQEGVVKEVEAENSCLLLEARAPVESDRRILTLQTVHLESQDVHLQGLGWLSVPHSEELSGTVPEAEGILQLPSVLWLDPEPQLSLQHCVTVSIPEELYPPEELQRIHFHLLRENVLMAEENPELTPDLDESTALKKPEEDEKDQLPPQGETDKREERLLLLEMKPKEGKDDEIVLTISHLSLEEQQDPPAANQTSVPGAKAAKPKRRRQTKGKPQSFQCDTCPFTSSKLSTFNRHIKIHSNERPHLCHLCLKAFRTVTLLRNHVNTHTGTRPHKCRDCDMAFVTSGELVRHRRYKHTYEKPFKCSLCKYASVEASKMKRHIRSHTGERPFQCCQCAYASRDSYKLKRHMRTHSGEKPYECPTCHVRFTQSGTMKIHIAQKHGENVPKYECPHCATIIARKSDLRVHLRNLHSQSPEEMKCRYCPAGFHERYALIQHQRTHKNEKKFKCKQCDYACKQERCLKAHMRMHTGEKPFSCLACNKHFRQKQLLTVHLRKYHDPNFVPNLHLCLKCDKRFSRWSNLQRHRKKCDPEHETLAPNKDRRPVTRTQASEGEAGHKEGEPQCPGEQALGHQGEAAGSQSPDHGLTCEIIFNMMDK |  | binds |  |
